Legend:
[1] = Bottom gate-bottom contact p-type organic thin film transistor, transfer characteristics; settings: for carrier mobility for holes / current ON/OFF ratio: before annealing; for carrier mobility for holes after annealing / current ON/OFF ratio after annealing: annealed at 130° C. for 10 min
[2] = Top gate-bottom contact p-type organic thin film transistor, transfer characteristics
[3] = drop cast from toluene solution
[4] = 0.20% by weight solution in anisole (60° C.)
[5] = drop cast from toluene solution, before annealing

| Molecule | carrier mobility for holes [1, 3] [cm^2/V. sec] | current ON/OFF ratio [1, 3] | carrier mobility for holes after annealing ([1]; toluene solution) [cm^2/V•sec] | current ON/OFF ratio after annealing ([1]; toluene solution) | carrier mobility for holes [1, 4] [cm^2/V. sec] | current ON/OFF ratio [1, 4] | carrier mobility for holes after annealing ([1]; anisole solution) [cm^2/V•sec] | current ON/OFF ratio after annealing ([1]; anisole solution) | carrier mobility for holes after annealing ([2]; annealed at 130° C. for 10 min) [cm^2/V•sec] | current ON/OFF ratio after annealing ([2]; annealed at 130° C. for 10 min) | carrier mobility for holes [2, 5] [cm^2/V. sec] | current ON/OFF ratio [2, 5] |
| --- | --- | --- | --- | --- | --- | --- | --- | --- | --- | --- | --- | --- |
| 2,7-di(2-(4-heptylphenyl)ethyl)dithienobiphenylene [Compound 6] | 1.19 | 1.1 x 10^6 | 1.15 | 1.0 x 10^6 |  |  |  |  |  |  |  |  |
| 2,7-di(2-(4-propylphenyl)ethyl)dithienobiphenylene [Compound 4] | 1.86 | 1.1 x 10^6 | 1.70 | 1.0 x 10^6 | 2.48 | 1.6 x 10^6 | 2.40 | 1.4 x 10^6 |  |  |  |  |
| CCCCCCCCc1ccc2c(c1)sc1c3ccc(CCCCCCCC)cc3sc21 [2,7-dioctyl[1]benzothieno[3,2-b][1]benzothiophene, reference compound] | 1.02 | 3.0 × 10^5 |  |  |  |  |  |  |  |  |  |  |
| c1ccc(CCc2cc3ccc4c(c3s2)-c2ccc3cc(CCc5ccccc5)sc3c2-4)cc1 [Compound 1, 2,7-di(2-phenylethyl)dithienobiphenylene] | 2.29 | 1.5 x 10^6 | 2.25 | 1.0 x 10^6 |  |  |  |  | 1.40 | 1.2 x 10^6 | 1.45 | 1.6 x 10^6 |
| CCCCc1ccc(CCc2cc3ccc4cc5c(ccc6ccsc65)cc4c3s2)cc1 [Compound 17, 2-(2-(4-n-butylphenyl)ethyl)anthra[1,2-b:5,6-b′]dithiophene] | 1.13 | 8.1 × 10^7 | 1.10 | 8.0 × 10^7 |  |  |  |  |  |  |  |  |

From patent US20230142592A1, “AROMATIC COMPOUND, ORGANIC SEMICONDUCTOR LAYER AND ORGANIC THIN FILM TRANSISTOR” (TOSOH CORPORATION, priority 2020, published 2023)
